For this experiment, the target named is IL-1 receptor type I (human (endogenous in A-498)) (UniProt P14778). As to the kind of experiment: cross-linking; A-498 cells (90% confluent) incubated with 5 ng/ml IL-1 for 3 h at 4 C, washed, cross-linked with DSS (1 mg/ml in PBS, 1 h, 4 C), lysed in 1% Triton X-100; immunoprecipitation with antibodies against IL-1 and protein G; Western blot with the anti-IL-1 antibody; band of about 100 kDa; only the binder purified.

Amino acid sequences for entries named in this document (tags omitted). Residues count along the entry.
UniProt P14778, residues 18-569: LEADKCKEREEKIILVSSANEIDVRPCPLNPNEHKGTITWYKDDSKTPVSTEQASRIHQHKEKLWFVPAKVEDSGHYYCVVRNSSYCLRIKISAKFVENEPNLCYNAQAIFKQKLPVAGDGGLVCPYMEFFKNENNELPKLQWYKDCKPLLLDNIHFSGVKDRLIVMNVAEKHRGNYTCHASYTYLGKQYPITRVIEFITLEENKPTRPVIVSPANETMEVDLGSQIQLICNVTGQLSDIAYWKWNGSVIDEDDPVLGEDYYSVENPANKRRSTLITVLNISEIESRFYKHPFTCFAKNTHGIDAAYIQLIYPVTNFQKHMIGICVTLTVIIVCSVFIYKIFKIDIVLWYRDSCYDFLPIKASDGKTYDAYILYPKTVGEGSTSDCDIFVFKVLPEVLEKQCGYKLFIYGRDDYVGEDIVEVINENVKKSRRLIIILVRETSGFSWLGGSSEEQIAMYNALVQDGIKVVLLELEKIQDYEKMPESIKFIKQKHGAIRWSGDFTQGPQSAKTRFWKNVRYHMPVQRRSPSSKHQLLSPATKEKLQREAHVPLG

Results are given in words; binding and its absence hold for the method and conditions named. Binding seen in cells or lysates may run through a third protein. Some results given as binding are weak or reduced against the parent protein; the word gives no strength.

B1: Human recombinant IL-1 alpha (ligand, UniProt P01583 113-271)
chain: SAPFSFLSNVKYNFMRIIKYEFILNDALNQSIIRANDQYLTAAALHNLDEAVKFDMGAYKSSKDDAKITVILRISKTQLYVTAQDEDQPVLLKEMPEIPKTITGSETNLLFFWETHGTKNYFTSVAHPNLFIATKQDYWVCLAGGPPSITDFQILENQA
Turning to B1, the binding entry is given as “binds”.
